The list shows a part of the results. Small differences around the control level are noise.
Compound: CN[C@@H]1C[C@H]2O[C@@](C)([C@@H]1OC)n1c3ccccc3c3c4c(c5c6ccccc6n2c5c31)C(=O)NC4 [staurosporine]
Assay: log2 fold change of tryptic peptide abundance, ligand vs vehicle (limited proteolysis) (log2 ratio); higher = more trypsin-susceptible (destabilized)
Conditions: ligand concentration: 20 uM; sample: K562 cleared lysate; digestion: 4 min, 22 C (HT-PELSA RT4min, Orbitrap Astral)

By UniProt entry, the sequences of proteins in these tests, tags left out. Where a name states a change or a piece, a line headed by the entry shows the natural chain unless it says otherwise.
UniProt O60292, whole entry: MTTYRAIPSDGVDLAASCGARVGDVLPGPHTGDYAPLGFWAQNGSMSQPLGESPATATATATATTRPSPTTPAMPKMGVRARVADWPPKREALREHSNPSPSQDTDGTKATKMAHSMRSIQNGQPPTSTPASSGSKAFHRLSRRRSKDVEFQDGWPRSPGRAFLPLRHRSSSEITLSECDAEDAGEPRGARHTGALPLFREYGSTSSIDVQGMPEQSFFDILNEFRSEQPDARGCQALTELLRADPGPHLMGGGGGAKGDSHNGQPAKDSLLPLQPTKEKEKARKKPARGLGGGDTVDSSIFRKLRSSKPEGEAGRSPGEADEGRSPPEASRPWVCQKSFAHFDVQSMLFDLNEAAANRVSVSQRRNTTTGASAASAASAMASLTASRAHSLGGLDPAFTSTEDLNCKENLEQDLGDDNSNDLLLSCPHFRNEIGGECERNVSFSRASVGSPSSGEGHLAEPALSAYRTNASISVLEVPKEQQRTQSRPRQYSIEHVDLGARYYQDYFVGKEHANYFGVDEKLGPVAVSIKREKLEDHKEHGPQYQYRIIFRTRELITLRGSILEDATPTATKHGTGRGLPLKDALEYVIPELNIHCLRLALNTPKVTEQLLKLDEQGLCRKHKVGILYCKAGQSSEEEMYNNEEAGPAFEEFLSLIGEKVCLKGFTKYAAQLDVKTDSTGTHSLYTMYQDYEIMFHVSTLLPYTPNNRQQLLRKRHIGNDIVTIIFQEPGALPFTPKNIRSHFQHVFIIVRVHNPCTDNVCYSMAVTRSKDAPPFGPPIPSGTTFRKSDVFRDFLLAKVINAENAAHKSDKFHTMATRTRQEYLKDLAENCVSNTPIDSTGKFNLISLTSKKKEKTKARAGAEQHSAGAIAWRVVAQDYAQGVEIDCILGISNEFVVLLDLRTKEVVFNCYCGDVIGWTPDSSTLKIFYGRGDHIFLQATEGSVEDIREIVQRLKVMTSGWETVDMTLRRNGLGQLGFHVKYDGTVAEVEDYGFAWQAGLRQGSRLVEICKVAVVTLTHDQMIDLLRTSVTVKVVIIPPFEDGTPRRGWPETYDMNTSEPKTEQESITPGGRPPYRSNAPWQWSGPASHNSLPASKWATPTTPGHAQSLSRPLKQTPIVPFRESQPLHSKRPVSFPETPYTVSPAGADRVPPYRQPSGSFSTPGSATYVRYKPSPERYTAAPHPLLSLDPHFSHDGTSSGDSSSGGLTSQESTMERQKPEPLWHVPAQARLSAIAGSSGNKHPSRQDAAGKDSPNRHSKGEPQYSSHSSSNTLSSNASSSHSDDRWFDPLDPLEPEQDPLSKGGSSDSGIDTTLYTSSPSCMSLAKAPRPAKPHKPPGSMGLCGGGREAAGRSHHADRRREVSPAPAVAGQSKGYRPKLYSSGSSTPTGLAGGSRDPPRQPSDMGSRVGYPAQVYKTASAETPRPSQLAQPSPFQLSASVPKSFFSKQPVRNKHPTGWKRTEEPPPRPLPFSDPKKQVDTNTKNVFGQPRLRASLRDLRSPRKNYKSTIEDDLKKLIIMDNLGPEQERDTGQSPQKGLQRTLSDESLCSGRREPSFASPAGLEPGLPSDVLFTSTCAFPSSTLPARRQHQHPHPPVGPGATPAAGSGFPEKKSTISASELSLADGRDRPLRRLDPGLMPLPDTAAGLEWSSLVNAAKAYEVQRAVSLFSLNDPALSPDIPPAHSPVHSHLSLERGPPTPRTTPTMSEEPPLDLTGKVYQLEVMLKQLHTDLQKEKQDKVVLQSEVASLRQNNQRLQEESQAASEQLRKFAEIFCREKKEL
UniProt O60518: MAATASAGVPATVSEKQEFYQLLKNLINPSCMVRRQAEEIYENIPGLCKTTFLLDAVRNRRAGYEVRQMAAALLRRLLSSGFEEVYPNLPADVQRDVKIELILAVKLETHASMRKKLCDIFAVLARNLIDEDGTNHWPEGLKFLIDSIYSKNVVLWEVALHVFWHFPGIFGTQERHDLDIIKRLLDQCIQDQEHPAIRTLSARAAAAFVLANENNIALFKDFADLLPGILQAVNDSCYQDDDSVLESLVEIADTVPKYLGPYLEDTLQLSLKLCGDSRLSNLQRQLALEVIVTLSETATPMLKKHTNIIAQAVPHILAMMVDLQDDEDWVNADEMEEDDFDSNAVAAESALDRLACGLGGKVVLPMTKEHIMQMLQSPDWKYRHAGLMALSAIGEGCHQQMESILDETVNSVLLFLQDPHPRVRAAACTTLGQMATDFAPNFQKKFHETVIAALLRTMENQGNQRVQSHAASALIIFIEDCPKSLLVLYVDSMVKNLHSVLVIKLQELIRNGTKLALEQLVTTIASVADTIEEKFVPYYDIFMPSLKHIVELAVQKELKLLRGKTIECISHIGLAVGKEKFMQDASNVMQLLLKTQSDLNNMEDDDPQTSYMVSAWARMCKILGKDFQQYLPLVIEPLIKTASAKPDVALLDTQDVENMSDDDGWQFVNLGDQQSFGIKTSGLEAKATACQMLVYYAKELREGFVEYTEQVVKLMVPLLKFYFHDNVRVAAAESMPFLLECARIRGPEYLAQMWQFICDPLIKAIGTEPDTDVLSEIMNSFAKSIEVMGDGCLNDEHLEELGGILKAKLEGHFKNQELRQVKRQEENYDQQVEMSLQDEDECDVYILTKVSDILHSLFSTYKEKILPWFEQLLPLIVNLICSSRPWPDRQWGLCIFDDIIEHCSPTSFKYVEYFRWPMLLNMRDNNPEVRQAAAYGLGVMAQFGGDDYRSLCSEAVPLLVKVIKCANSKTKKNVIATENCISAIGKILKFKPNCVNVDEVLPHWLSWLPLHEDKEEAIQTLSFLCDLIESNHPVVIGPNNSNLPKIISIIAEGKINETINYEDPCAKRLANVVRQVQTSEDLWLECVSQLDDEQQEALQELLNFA
UniProt O43776: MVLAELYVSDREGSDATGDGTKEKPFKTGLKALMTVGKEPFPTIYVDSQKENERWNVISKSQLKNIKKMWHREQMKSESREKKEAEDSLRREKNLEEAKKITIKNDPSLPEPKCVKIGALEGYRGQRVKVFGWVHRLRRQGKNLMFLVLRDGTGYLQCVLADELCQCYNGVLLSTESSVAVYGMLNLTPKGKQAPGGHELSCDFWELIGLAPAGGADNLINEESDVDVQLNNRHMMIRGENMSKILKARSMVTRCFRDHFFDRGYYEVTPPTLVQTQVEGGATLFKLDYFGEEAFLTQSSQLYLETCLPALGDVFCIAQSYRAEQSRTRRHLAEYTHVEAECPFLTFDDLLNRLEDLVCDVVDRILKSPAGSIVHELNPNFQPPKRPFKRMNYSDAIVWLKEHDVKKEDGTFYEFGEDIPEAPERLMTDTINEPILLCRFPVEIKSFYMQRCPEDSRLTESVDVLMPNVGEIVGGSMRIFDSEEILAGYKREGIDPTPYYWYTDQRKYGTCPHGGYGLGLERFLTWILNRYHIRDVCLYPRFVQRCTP
UniProt O75298: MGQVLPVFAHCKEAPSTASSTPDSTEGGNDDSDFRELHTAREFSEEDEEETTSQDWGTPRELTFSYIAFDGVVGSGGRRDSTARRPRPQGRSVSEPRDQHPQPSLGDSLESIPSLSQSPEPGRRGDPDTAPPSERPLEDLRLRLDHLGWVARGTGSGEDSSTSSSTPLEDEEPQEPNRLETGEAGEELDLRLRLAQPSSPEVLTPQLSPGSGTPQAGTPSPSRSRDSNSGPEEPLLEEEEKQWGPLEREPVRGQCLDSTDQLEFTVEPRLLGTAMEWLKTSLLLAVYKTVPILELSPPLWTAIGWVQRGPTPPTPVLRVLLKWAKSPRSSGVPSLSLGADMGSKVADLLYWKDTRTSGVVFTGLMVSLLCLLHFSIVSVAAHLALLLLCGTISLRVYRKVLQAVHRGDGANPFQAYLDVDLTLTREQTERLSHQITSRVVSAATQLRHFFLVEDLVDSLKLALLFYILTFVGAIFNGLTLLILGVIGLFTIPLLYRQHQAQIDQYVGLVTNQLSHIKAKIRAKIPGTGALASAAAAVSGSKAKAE
UniProt O15524: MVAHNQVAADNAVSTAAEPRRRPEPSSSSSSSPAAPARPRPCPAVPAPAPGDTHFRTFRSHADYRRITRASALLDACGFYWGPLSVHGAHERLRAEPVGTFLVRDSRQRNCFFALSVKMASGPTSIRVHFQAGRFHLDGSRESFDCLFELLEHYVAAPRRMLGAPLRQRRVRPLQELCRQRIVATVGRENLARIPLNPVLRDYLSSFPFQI
UniProt O75348, whole entry: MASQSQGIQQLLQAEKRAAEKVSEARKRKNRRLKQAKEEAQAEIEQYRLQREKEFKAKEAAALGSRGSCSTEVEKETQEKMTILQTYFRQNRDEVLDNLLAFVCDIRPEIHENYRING
UniProt O60361, whole entry: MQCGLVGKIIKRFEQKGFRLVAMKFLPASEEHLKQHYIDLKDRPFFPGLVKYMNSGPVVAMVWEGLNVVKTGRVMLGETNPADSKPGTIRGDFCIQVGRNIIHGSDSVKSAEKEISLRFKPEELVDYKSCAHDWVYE
UniProt O43795: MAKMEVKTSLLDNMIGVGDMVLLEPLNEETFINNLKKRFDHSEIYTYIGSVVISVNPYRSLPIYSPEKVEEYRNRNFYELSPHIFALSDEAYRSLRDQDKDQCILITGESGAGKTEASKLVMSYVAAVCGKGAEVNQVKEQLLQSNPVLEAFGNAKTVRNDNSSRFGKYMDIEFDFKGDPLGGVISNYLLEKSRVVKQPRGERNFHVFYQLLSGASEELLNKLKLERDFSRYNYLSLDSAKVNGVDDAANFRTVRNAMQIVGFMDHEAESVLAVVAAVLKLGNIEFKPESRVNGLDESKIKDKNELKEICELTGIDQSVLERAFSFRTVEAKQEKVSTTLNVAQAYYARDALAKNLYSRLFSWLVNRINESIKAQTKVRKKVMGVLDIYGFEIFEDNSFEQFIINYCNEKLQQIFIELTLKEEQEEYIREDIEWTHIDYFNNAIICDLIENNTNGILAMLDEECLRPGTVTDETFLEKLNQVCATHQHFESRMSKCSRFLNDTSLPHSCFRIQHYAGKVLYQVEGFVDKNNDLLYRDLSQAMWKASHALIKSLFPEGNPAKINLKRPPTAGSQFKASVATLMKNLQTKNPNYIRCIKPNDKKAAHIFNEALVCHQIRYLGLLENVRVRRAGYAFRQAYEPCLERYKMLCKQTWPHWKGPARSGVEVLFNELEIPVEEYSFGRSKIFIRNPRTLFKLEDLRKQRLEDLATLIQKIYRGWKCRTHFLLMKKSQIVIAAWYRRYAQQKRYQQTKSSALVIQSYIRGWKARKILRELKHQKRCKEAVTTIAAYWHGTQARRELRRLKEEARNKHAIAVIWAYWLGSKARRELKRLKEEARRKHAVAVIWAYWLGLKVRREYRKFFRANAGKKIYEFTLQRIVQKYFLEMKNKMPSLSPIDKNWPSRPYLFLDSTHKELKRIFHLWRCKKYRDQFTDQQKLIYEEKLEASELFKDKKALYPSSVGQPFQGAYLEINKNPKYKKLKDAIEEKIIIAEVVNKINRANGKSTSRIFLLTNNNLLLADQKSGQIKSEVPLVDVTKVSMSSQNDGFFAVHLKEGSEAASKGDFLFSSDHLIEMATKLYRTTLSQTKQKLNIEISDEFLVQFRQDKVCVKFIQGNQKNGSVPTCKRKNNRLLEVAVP
UniProt O60568: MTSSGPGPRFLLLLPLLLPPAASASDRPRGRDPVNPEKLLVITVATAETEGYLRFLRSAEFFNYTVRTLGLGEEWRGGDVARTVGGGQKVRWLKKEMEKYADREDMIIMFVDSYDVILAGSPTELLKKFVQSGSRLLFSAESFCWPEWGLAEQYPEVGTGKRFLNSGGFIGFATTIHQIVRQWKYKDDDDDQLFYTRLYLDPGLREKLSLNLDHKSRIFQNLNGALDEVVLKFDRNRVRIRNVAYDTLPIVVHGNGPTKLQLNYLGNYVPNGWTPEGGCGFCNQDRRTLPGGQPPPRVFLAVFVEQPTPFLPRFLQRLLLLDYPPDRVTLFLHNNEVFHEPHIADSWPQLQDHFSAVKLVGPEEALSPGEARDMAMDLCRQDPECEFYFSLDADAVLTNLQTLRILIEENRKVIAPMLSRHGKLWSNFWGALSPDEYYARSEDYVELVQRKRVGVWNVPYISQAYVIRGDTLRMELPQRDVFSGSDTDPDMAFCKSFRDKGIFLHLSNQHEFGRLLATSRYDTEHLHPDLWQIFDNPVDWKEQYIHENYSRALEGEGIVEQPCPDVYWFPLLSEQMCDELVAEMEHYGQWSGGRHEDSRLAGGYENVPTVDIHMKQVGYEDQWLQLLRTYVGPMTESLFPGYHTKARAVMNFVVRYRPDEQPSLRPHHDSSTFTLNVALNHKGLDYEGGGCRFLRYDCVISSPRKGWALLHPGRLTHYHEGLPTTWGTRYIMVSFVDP
UniProt O43665: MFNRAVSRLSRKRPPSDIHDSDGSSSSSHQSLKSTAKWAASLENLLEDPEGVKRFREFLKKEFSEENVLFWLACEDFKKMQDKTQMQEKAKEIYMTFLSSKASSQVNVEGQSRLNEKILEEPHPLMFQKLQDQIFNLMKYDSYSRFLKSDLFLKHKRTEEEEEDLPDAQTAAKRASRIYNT

Target | log2 fold change
UniProt O60292 (peptide sequence: GCQALTELLR, peptide start residue: 234) | -0.336
CTNND1 (peptide sequence: RTETTVKK, peptide start residue: 136) (UniProt O60716) | 0.527
PRKAB2 (peptide sequence: SEGAGGHAPGK, peptide start residue: 21) (UniProt O43741) | -0.509
RANBP6 (peptide sequence: FYFHDNVR, peptide start residue: 721) (UniProt O60518) | 0.778
TBC1D12 (peptide sequence: SDACLLGSGSK, peptide start residue: 106) (UniProt O60347) | 0.532
BNIP3L (peptide sequence: DHSSQSEEEVVEGEKEVEALKK, peptide start residue: 115) (UniProt O60238) | 0.396
UniProt O60232 (peptide sequence: PAPQPPVPRPEHCEGAAAGLK, peptide start residue: 113) | -0.133
PPFIA3 (peptide sequence: NSLSEEIANMKK, peptide start residue: 460) (UniProt O75145) | 0.513
UniProt O43930 (peptide sequence: VMSIPDVIR, peptide start residue: 79) | -0.606
UniProt O43776 (peptide sequence: FLTWILNR, peptide start residue: 523) | -0.206
RNGTT (peptide sequence: LLEGNFAK, peptide start residue: 424) (UniProt O60942) | 0.767
RTN2 (peptide sequence: AKIPGTGALASAAAAVSGSK, peptide start residue: 522) (UniProt O75298) | 0.0835
RNMT (peptide sequence: RDITVLDLGCGK, peptide start residue: 197) (UniProt O43148) | 1.04
UniProt O15524 (peptide sequence: VAHNQVAADNAVSTAAEPR, peptide start residue: 2) | 0.182
NDUFS6 (peptide sequence: VTHTGQVYDDKDYR, peptide start residue: 39) (UniProt O75380) | -0.0878
AKAP8 (peptide sequence: NGSFGGQYSECRDPAR, peptide start residue: 163) (UniProt O43823) | -0.205
ATP6V1G1 (peptide sequence: AAEKVSEAR, peptide start residue: 18) (UniProt O75348) | 0.352
NME2P1 (peptide sequence: QHYIDLK, peptide start residue: 50) (UniProt O60361) | -0.144

Looked up above:
Value for RANBP6 (peptide sequence: FYFHDNVR, peptide start residue: 721) (UniProt O60518) under log2 fold change: 0.778
Value for UniProt O43776 (peptide sequence: FLTWILNR, peptide start residue: 523) under log2 fold change: -0.206

The listing continues.

Target | log2 fold change
RNASEH1 (peptide sequence: AGIGVYWGPGHPLNVGIRLPGR, peptide start residue: 158) (UniProt O60930) | -0.714
USO1 (peptide sequence: VASSTLLDDRR, peptide start residue: 30) (UniProt O60763) | -0.745
ARPC5 (peptide sequence: DRAGSIVLK, peptide start residue: 73) (UniProt O15511) | 0.453
MYO1B (peptide sequence: RLKEEAR, peptide start residue: 801) (UniProt O43795) | -0.0143
CD3EAP (peptide sequence: SALAPNLLTSGKK, peptide start residue: 163) (UniProt O15446) | 0.133
UniProt O75346 (peptide sequence: FSNSNTYK, peptide start residue: 156) | -0.157
TBC1D4 (peptide sequence: KAIHQQILLLR, peptide start residue: 845) (UniProt O60343) | -0.565
MRPS14 (peptide sequence: KMAYEYADER, peptide start residue: 42) (UniProt O60783) | 0.395
COQ9 (peptide sequence: NLTGLNQR, peptide start residue: 310) (UniProt O75208) | 0.043
WDR1 (peptide sequence: YTSLMLR, peptide start residue: 390) (UniProt O75083) | -0.389
UniProt O15530 (peptide sequence: YQSHPDAAVQ, peptide start residue: 547) | 0.0516
EIF1B (peptide sequence: TLTTVQGIADDYDKKK, peptide start residue: 43) (UniProt O60739) | -0.0973
PDCD6 (peptide sequence: SIISMFDRENK, peptide start residue: 67) (UniProt O75340) | 0.149
UniProt O60341 (peptide sequence: HVKDEQIEHWKK, peptide start residue: 422) | 0.868
DENND4B (peptide sequence: VVLPDEVCYR, peptide start residue: 808) (UniProt O75064) | 0.322
PLOD3 (peptide sequence: GIFLHLSNQHEFGR, peptide start residue: 501) (UniProt O60568) | -0.21
NBN (peptide sequence: VQKQEEDVNVR, peptide start residue: 580) (UniProt O60934) | -0.159
RGS10 (peptide sequence: KMQDKTQMQEK, peptide start residue: 79) (UniProt O43665) | 0.494

Reference: the supplement of paper PMC12819154, “High-throughput peptide-centric local stability assay extends protein–ligand identification to membrane proteins, tissues and bacteria” (Nature Structural & Molecular Biology, 2025)
